# Earlier results as cited in patent US11529335B2, “Compositions and methods for treating cancer” (UNIVERSITY OF IOWA RESEARCH FOUNDATION, priority 2020, dated 2022).
# At least one compound was matched to its structure with a doubt left.
# Tested on: metastatic melanoma
# Settings: cited from earlier work
smiles,measurement,value
CCCS(=O)(=O)Nc1ccc(F)c(C(=O)c2c[nH]c3ncc(-c4ccc(Cl)cc4)cc23)c1F [vemurafenib],time for which tumor progression is slowed,about 5.3 months
